Taken from: PubChem BioAssay AID1259254 (NCATS, 2017)
The whole screen tested about 59,000 reagents; this is a part drawn at random. Over the whole deposit, about 1,550 (2.6%) were called active. 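G2 share is only a proxy for re-replication; each gene was hit by three separate siRNAs, and active genes were retested.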 A number with no mark means an inactive call. The numbers tell different reagents against one gene apart. Not all columns of the deposit are shown. Not given: the amount of reagent.

Test: 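Genome-wide screen for genes that prevent DNA re-replication in cancer cells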 (primary screen)
System: human HCT116 colorectal cancer cells
Reagents: single siRNA against human genes
Time to read-out: 3 days
Detection: 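Imaged Hoechst DNA stain sorts each cell into a cycle phase by DNA amount; per plate, G2 fraction set to 0% for non-targeting and 100% for GMNN siRNA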
Reading the numbers: G2 robust z-score: higher = more G2 cells, more excess DNA replication
Hit rule: 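An siRNA counts as active if its G2 robust z-score lies at least 5 MADs above the screen median; here such calls match roughly 38% of GMNN control or more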

gene symbol | reagent | G2 robust z-score
BCAS4 | 1 | 1.37
BCAS4 | 2 | 0.774
BCAS4 | 3 | 1.83
GOLT1A | 1 | 0.15
GOLT1A | 2 | -0.0951
GOLT1A | 3 | 0.551
SORCS3 | 1 | 0.0248
SORCS3 | 2 | -1.46
SORCS3 | 3 | -0.69
NDUFA7 | 1 | -0.727
NDUFA7 | 2 | -0.236
NDUFA7 | 3 | -0.837
ADAMTS2 | 1 | -1.54
ADAMTS2 | 2 | -0.455
ADAMTS2 | 3 | -0.743
PES1 | 1 | 7.66 (active)
PES1 | 2 | 2.01
PES1 | 3 | -0.686
TRDN | 1 | -0.691
TRDN | 2 | -0.113
TRDN | 3 | 4.23
LPIN2 | 1 | -0.424
LPIN2 | 2 | -0.225
LPIN2 | 3 | -1.01
UNC119 | 1 | 2.8
UNC119 | 2 | 0.0196
UNC119 | 3 | -0.438
RPEL1 | 1 | 1.54
RPEL1 | 2 | 3.7
RPEL1 | 3 | 0.471
RPEL1 | 4 | 2.39
RPEL1 | 5 | 1.75
RPEL1 | 6 | 0.594
H3-3A | 1 | -0.424
H3-3A | 2 | 5.11 (active)
H3-3A | 3 | -0.798
IFNG | 1 | -0.624
IFNG | 2 | 0.483
IFNG | 3 | -0.618
FAR2 | 1 | -0.36
FAR2 | 2 | 1.5
FAR2 | 3 | 0.172
TBCB | 1 | -0.185
TBCB | 2 | -0.457
TBCB | 3 | 4.17
LENEP | 1 | -0.925
LENEP | 2 | -1.06
LENEP | 3 | 2.16
CLLU1-AS1 | 1 | -0.2
CLLU1-AS1 | 2 | 0.0884
CLLU1-AS1 | 3 | -0.102
TMIE | 1 | -0.319
TMIE | 2 | -0.0938
TMIE | 3 | -0.499
MSGN1 | 1 | -0.397
MSGN1 | 2 | -0.434
MSGN1 | 3 | -0.13
TARM1 | 1 | 0.982
TARM1 | 2 | 1.39
TARM1 | 3 | 1.02
KDM1A | 1 | 1.42
KDM1A | 2 | -0.927
KDM1A | 3 | -0.0118
GNE | 1 | -0.493
GNE | 2 | 0.304
GNE | 3 | -0.96
ANKDD1A | 1 | 0.787
ANKDD1A | 2 | -0.399
ANKDD1A | 3 | 0.63
DDOST | 1 | -0.551
DDOST | 2 | 1.95
DDOST | 3 | 2.12
HESX1 | 1 | -1.11
HESX1 | 2 | -0.839
HESX1 | 3 | 0.914
DNAJC1 | 1 | 0.713
DNAJC1 | 2 | -1.05
DNAJC1 | 3 | 4.81
TAPT1 | 1 | 6.15 (active)
TAPT1 | 2 | -0.555
TAPT1 | 3 | -0.663
LMNB1 | 1 | -1.02
LMNB1 | 2 | 1.13
LMNB1 | 3 | 1.04
CNNM1 | 1 | 0.604
CNNM1 | 2 | 1.39
CNNM1 | 3 | 1.23

Reagents listed so far called active (3):
gene symbol | reagent | G2 robust z-score
PES1 | 1 | 7.66 (active)
H3-3A | 2 | 5.11 (active)
TAPT1 | 1 | 6.15 (active)
